Data on two substances can be found in patent US20250000988A1 (priority 2021, published 2025).

This series in a line: general procedure: Fmoc solid-phase peptide synthesis; MBHA resin (sub: 0.27 mmol/g). The settings on record: whole synthesis, scale of the general procedure 0.5 mmol.

On to “(β-Ala)-Sar10-Ala (hArg) Asp-SEQ ID NO:2 (Cys-HyP-Leu-Val-Asn-Pro-Leu-Cys-Leu-His-Pro-(D-Asp)-Trp-hArg-Hcys), molecular scaffold: TATA”, for which the “final purity (method not given)” value is reported as 95.8%.
Consider “(β-Ala)-Sar10-Ala (hArg) Asp-SEQ ID NO:4 (Hcys-HyP-Leu-Val-Asn-Pro-Leu-Cys-Leu-His-Pro-(D-Asp)-Trp-hArg-Cys), molecular scaffold: TATA”, for which the “final purity (method not given)” value worked out at 96.8%.
